Measurements as given in PMC9051543.
These are yes or no findings as the source states them, for the method shown. A result given as binding can be weak or reduced; the word gives no strength.

Target: BD-MdCNR8 (full-length MdCNR8 in pGBT9) (apple)
Assay: two-hybrid; pairwise Y2H; baits in pGBT9 (BD), preys in pGAD424 (AD); Gold yeast strain; growth on SD (-T/-L/-H/-A) and SD (-T/-L/-H/-A) with X-gal

B1: AtSCE1 (full-length, in pGAD424) (enzyme, UniProt Q42551 1-160)
chain: MASGIARGRLAEERKSWRKNHPHGFVAKPETGQDGTVNLMVWHCTIPGKAGTDWEGGFFPLTMHFSEDYPSKPPKCKFPQGFFHPNVYPSGTVCLSILNEDYGWRPAITVKQILVGIQDLLDTPNPADPAQTDGYHLFCQDPVEYKKRVKLQSKQYPALV
- binding: binds
